Read-outs that look alike come from different tables or passages of the source. No constants are given. Whether binding was seen depends on the method and setting. Binding seen in cells or lysates may run through a third protein. Some binding calls cover weakened binding; strength is not graded here.
B1: Siah2 (enzyme, UniProt O43255 1-324)
chain: MSRPSSTGPSANKPCSKQPPPQPQHTPSPAAPPAAATISAAGPGSSAVPAAAAVISGPGGGGGAGPVSPQHHELTSLFECPVCFDYVLPPILQCQAGHLVCNQCRQKLSCCPTCRGALTPSIRNLAMEKVASAVLFPCKYATTGCSLTLHHTEKPEHEDICEYRPYSCPCPGASCKWQGSLEAVMSHLMHAHKSITTLQGEDIVFLATDINLPGAVDWVMMQSCFGHHFMLVLEKQEKYEGHQQFFAIVLLIGTRKQAENFAYRLELNGNRRRLTWEATPRSIHDGVAAAIMNSDCLVFDTAIAHLFADNGNLGINVTISTCCP

By UniProt entry, the sequences of proteins in these tests, tags left out.
UniProt P10275: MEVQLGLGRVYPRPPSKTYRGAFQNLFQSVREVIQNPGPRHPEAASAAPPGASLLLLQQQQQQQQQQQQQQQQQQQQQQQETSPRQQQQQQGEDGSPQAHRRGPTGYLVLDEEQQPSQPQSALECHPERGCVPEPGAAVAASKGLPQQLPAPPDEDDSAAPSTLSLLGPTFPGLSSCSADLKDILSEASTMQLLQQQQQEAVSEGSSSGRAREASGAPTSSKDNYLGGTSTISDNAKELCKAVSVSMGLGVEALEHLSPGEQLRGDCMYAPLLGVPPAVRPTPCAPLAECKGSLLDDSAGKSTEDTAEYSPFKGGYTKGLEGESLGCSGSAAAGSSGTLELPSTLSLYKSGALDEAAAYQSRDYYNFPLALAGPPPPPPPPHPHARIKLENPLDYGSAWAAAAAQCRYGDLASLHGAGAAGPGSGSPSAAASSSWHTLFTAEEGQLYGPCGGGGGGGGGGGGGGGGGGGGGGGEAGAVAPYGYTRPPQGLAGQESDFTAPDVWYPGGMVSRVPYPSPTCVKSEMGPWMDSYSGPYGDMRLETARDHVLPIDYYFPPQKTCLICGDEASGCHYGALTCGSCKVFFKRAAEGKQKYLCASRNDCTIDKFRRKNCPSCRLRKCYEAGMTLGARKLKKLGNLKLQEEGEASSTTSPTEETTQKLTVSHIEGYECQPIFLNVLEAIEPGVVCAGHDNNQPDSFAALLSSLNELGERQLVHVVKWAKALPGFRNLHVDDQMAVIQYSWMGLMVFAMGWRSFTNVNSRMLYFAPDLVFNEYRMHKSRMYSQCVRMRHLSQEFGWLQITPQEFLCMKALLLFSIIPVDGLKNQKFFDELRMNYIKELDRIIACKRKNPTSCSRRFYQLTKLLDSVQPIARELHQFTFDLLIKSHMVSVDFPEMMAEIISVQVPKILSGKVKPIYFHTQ
UniProt O75376: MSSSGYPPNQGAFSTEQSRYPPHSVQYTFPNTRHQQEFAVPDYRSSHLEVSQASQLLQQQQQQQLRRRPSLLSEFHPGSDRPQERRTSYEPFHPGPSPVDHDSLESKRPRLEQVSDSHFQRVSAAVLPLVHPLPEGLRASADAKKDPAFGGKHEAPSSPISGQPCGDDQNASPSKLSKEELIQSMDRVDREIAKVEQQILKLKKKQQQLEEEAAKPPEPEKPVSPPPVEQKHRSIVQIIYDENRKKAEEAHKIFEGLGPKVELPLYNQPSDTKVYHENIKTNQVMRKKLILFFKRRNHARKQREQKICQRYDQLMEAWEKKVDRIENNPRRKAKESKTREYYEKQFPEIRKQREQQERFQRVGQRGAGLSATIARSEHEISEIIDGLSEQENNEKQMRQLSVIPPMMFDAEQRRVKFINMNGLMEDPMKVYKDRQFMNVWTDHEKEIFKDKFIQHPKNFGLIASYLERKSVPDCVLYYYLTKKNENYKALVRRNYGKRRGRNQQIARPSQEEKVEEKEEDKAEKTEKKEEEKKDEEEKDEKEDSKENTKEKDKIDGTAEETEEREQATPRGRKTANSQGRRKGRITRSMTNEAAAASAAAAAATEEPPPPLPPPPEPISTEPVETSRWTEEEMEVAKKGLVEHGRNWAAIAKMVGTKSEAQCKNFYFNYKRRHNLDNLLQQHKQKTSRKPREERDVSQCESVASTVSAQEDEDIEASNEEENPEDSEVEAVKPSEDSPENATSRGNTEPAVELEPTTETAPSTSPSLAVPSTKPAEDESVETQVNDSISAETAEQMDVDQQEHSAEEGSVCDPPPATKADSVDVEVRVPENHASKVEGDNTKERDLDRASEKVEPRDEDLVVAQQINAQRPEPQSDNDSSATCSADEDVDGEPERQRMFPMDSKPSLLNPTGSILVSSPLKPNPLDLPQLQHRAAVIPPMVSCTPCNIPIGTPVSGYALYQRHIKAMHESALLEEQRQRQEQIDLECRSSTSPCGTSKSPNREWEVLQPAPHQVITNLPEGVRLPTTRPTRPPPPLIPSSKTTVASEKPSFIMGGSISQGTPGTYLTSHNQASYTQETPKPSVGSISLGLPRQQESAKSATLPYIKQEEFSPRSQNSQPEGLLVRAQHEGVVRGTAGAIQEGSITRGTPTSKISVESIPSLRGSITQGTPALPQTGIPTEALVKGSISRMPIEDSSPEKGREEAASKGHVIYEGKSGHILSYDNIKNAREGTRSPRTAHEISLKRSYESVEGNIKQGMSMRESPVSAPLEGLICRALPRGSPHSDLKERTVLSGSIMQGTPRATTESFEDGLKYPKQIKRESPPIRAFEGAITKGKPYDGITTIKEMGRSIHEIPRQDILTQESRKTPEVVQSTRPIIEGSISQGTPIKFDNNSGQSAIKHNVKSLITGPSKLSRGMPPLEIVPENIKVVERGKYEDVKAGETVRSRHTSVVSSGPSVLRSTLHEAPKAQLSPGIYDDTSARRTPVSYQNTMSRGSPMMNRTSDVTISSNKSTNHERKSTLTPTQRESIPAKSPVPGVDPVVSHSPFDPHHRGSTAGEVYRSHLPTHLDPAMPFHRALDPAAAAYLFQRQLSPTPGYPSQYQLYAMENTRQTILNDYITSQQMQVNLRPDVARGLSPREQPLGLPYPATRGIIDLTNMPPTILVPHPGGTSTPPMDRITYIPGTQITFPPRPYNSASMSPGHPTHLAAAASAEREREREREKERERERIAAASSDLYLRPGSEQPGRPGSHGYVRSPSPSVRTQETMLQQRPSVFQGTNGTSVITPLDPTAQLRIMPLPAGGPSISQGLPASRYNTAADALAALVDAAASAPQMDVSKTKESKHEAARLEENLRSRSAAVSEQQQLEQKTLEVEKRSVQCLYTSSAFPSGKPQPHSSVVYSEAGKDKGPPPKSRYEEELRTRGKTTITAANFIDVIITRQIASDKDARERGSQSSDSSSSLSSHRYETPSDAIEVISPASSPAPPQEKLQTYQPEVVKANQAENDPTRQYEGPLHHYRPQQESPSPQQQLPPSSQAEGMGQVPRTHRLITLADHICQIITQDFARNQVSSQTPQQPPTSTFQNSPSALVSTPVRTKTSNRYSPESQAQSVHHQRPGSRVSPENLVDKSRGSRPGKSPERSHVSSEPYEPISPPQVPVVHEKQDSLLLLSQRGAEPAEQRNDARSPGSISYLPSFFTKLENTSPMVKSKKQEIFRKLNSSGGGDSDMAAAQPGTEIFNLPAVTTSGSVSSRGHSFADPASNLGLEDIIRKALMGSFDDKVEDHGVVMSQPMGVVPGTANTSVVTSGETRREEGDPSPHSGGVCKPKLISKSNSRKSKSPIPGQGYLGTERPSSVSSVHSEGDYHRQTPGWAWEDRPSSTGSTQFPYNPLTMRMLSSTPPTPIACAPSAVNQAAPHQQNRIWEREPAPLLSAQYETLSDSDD

Legend:
[1] = target: Androgen receptor (human (endogenous in LNCaP and C4-2)) (UniProt P10275); assay: co-IP; endogenous proteins in lysates of C4-2 and LNCaP cells, untreated or treated with 5 μM JS-K (3, 6 and 9 h, or 9 h); IP lysis buffer 20 mM Tris pH 7.5, 150 mM NaCl, 1% Triton X-100, 1 mM EDTA; primary antibody overnight at 4 °C, Protein A/G Agarose 4 h at 4 °C; Western blot
[2] = target: Androgen receptor (human (endogenous in LNCaP and C4-2)) (UniProt P10275); assay: as above; remark: listed apart in the source

Molecule | binding [1] | binding [2]
NCoR1 (from UniProt O75376 1-2440) | binds | –
B1 | – | binds

— article PMC5446692
